Results are given in words; binding and its absence hold for the method and conditions named. Binding seen in cells or lysates may run through a third protein. Binding can be weak; no strength is given. Tags and fused reporters may be left off the sequences shown.
Key:
[1] = target: T1, chicken STING, HA-tagged (pCMV-HA-chSTING) (chicken) (UniProt E1C7U0); experiment: co-IP; reverse assay: DF-1 cells co-transfected with pcDNA3.1-chDDX3X-Flag and pCMV-HA-chSTING, 48 h; RIPA lysate precipitated with anti-HA affinity gel; blot with anti-Flag
T1 sequence: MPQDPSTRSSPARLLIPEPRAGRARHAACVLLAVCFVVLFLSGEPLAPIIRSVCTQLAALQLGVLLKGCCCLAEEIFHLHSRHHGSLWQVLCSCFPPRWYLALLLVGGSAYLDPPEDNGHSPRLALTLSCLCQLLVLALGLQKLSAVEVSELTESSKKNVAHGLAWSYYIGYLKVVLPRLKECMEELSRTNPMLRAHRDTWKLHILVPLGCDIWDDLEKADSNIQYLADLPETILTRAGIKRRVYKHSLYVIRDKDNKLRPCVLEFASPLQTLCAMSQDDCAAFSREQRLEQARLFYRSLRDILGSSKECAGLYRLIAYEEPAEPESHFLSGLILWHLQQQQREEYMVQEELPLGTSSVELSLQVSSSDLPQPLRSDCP

Amino acid sequences for entries named in this document (tags omitted). A change or cut given only in a name is not applied to a line headed by its entry.
UniProt Q5F491: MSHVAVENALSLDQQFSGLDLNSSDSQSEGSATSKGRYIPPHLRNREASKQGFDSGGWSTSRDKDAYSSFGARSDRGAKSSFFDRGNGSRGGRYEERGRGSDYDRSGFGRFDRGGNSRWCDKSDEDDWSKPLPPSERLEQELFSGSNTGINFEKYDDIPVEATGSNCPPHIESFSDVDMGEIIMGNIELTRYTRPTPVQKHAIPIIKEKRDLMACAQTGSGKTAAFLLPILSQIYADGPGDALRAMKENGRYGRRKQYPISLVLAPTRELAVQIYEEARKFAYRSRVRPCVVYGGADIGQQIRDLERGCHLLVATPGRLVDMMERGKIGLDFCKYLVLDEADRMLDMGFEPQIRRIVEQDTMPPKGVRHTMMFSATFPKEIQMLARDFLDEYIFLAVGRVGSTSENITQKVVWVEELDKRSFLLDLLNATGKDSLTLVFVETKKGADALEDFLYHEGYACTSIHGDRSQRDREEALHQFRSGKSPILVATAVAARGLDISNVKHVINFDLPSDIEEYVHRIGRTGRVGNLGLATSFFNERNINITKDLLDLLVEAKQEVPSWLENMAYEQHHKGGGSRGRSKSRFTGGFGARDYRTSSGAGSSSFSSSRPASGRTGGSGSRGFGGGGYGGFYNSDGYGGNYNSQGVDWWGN

[2] = target: T2, chicken STING, Flag-tagged (pcDNA3.1-chSTING-Flag) (chicken) (UniProt E1C7U0); experiment: co-IP
T2 sequence: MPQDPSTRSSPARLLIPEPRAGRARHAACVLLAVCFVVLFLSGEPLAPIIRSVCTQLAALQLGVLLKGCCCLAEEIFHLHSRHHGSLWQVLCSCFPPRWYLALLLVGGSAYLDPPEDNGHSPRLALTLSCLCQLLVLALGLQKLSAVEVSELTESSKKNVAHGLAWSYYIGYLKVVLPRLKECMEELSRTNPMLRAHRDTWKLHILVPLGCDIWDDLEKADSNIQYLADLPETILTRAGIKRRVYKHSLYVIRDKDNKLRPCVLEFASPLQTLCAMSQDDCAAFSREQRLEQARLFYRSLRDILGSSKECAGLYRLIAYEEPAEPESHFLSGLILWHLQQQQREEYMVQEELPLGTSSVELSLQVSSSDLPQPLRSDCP

[3] = target: chicken DDX3X, Flag-tagged (pcDNA3.1-chDDX3X-Flag) (chicken) (UniProt Q5F491); experiment: co-IP; DF-1 cells co-transfected with pcDNA3.1-chDDX3X-Flag and pCMV-HA-chSTING, 48 h; RIPA lysate precipitated with anti-Flag affinity gel 2 h at 4°C; blot with anti-HA
[4] = target: chicken DDX3X, Flag-tagged (pcDNA3.1-chDDX3X-Flag) (chicken) (UniProt Q5F491); experiment: co-IP; HEK 293T cells co-transfected with pcDNA3.1-chDDX3X-Flag and pCMV-HA-chSTING, 48 h; RIPA lysate precipitated with anti-Flag affinity gel 2 h at 4°C; blot with anti-HA

Question: “chicken DDX3X, Flag-tagged (pcDNA3.1-chDDX3X-Flag) (from UniProt Q5F491)” was tested. Which binding [1] did it give?
Answer: binds

Question: How did the binding [2] turn out when endogenous chicken DDX3X was run?
Answer: binds

B1: chicken STING, HA-tagged (pCMV-HA-chSTING) (protein, UniProt E1C7U0 1-379)
chain: MPQDPSTRSSPARLLIPEPRAGRARHAACVLLAVCFVVLFLSGEPLAPIIRSVCTQLAALQLGVLLKGCCCLAEEIFHLHSRHHGSLWQVLCSCFPPRWYLALLLVGGSAYLDPPEDNGHSPRLALTLSCLCQLLVLALGLQKLSAVEVSELTESSKKNVAHGLAWSYYIGYLKVVLPRLKECMEELSRTNPMLRAHRDTWKLHILVPLGCDIWDDLEKADSNIQYLADLPETILTRAGIKRRVYKHSLYVIRDKDNKLRPCVLEFASPLQTLCAMSQDDCAAFSREQRLEQARLFYRSLRDILGSSKECAGLYRLIAYEEPAEPESHFLSGLILWHLQQQQREEYMVQEELPLGTSSVELSLQVSSSDLPQPLRSDCP
Question: With B1 as the molecule, how does the binding [3] read?
Answer: binds

Question: And the binding [4]?
Answer: binds
